Counter-ions that a name gives are not always drawn. The list shows a part of the results. This data set is noisy: repeats of one test often differ as much as different tests do.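 In a drug-repurposing library screen, luminescence reads luciferase driven by eight TEAD-binding elements, stably integrated into human kidney-derived cells. Compounds scoring over five robust Z scores above the plate mean are called hits.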
Tested on: HEK293A TEAD-LUC reporter
Assay: TEAD-luciferase reporter activity (YAP activation), robust Z score vs plate; higher = stronger YAP/TEAD activation
Settings: 24 h

Row | SMILES | TEAD-luciferase reporter activity (compound concentration: 200 nM) | TEAD-luciferase reporter activity (compound concentration: 2 uM) | TEAD-luciferase reporter activity (compound concentration: 10 uM)
1 | N/C(=N\OCC(O)CN1CCCCC1)c1cccnc1 (stereo not drawn) | inactive: -0.454 | inactive: -1.24 | inactive: 4.38
2 | Cc1ccc(-c2cccc(CN3CCCC(NC(=O)c4cccc(Cl)c4)C3)c2)cc1Cl (stereo not drawn) | active: 6.98 | – | inactive: 0.562
3 | CC/C(=C(\c1ccccc1)c1ccc(OCCN(C)C)cc1)c1ccccc1 [Tamoxifen citrate] | – | inactive: -0.137 | –
4 | CC/C(=C(\c1ccccc1)c1ccc(OCCN(C)C)cc1)c1ccccc1 [Tamoxifen . citrate] | inactive: -1.24 | – | inactive: 2.89
5 | CCCn1c(=O)c2[nH]c(-c3cnn(Cc4ccccc4)c3)nc2n(CCC)c1=O | inactive: -1.27 | inactive: 0.164 | inactive: 2.38
6 | CO/N=C(\C(=O)N[C@@H]1C(=O)N2C(C(=O)O)=CCSC12)c1csc(N)n1 (stereo partly drawn) [ceftizoxime] | inactive: -0.726 | inactive: -0.27 | inactive: 1.58
7 | O=c1cc(NC2CCN(CCCc3ccccc3)CC2)c2ccc(Cl)cc2o1 | inactive: -0.602 | inactive: -2.12 | inactive: 0.976
8 | CC(=O)NC[C@H]1CN(c2ccc(N3CCN(Cc4ccc([N+](=O)[O-])o4)CC3)c(F)c2)C(=O)O1 [Ranbezolid hydrochloride] | inactive: -0.349 | inactive: -1.2 | inactive: 2.51
9 | Cn1c(NC[C@@H](N)Cc2ccccc2)nc(-c2ccncc2)c(-c2ccc3ccccc3c2)c1=O | inactive: -2.94 | inactive: -2.08 | inactive: -1.02
10 | CCCCN1C(=O)C2C(=O)N(CCCCN3CCN(c4ccccc4OC)CC3)C(=O)C(C1=O)C2(C)C [Umespirone] | inactive: -0.115 | inactive: -0.591 | active: 7.42
11 | CC1CCCC(C)(C)C1CCC(C)[N+](C)(C)CCCCCC[N+](C)(C)C(C)CCC1C(C)CCCC1(C)C (stereo not drawn) | inactive: -2.43 | inactive: -0.00628 | inactive: 1.51
12 | COc1ccc2c(c1)c(CC(=O)Oc1ccc(C#N)cc1)c(C)n2C(=O)c1ccc(Cl)cc1 | inactive: -2.45 | inactive: 0.591 | inactive: 0.238
13 | COc1ccc(CN2CCN(C(c3ccc(F)cc3)c3ccc(F)cc3)CC2)c(OC)c1OC | inactive: -1.91 | – | inactive: -0.154
14 | COc1ccc(CN2CCN(C(c3ccc(F)cc3)c3ccc(F)cc3)CC2)c(OC)c1OC [lomerizine HCl] | – | inactive: 3.24 | –
15 | CCCCCCCCc1ccc(-c2noc(C[C@@H]3CCCN3C(=N)N)n2)cc1 | inactive: -0.815 | inactive: 0.519 | inactive: -1.21

A run of entries from the list above:
Row | SMILES | TEAD-luciferase reporter activity (compound concentration: 200 nM) | TEAD-luciferase reporter activity (compound concentration: 2 uM) | TEAD-luciferase reporter activity (compound concentration: 10 uM)
11 | CC1CCCC(C)(C)C1CCC(C)[N+](C)(C)CCCCCC[N+](C)(C)C(C)CCC1C(C)CCCC1(C)C (stereo not drawn) | inactive: -2.43 | inactive: -0.00628 | inactive: 1.51
12 | COc1ccc2c(c1)c(CC(=O)Oc1ccc(C#N)cc1)c(C)n2C(=O)c1ccc(Cl)cc1 | inactive: -2.45 | inactive: 0.591 | inactive: 0.238
13 | COc1ccc(CN2CCN(C(c3ccc(F)cc3)c3ccc(F)cc3)CC2)c(OC)c1OC | inactive: -1.91 | – | inactive: -0.154
